# Data published in PubChem BioAssay AID2685 (National Center for Advancing Translational Sciences (NCATS), 2010).
# The whole screen tested about 320,000 compounds, of which about 2,100 (0.66%) were called active. The inconclusive results got no clear call from the source; some entries with a clear call stand among them for comparison. Calls come from the whole dose curve; as a rule, active = well fitted inhibition curve with a large enough effect in the signal ratio, with a control signal flat (not every such curve was filed as active); inconclusive = small, poorly fitted or top-dose-only effect, or effect the other way, or a change in a side signal; inactive = flat fitted curve, though single readings scatter; the % refers to the signal ratio. Where the call is inconclusive, the potency comes from a doubtful curve fit.
# Assay: qHTS Assay for Lipid Storage Modulators in Drosophila S3 Cells
# Conditions: BODIPY lipid droplet fluorescence, 18-24 h, cells fed with added oleic acid; lipid storage change, negative = inhibition: at 46.1 µM (top of the series) unless noted
# How it was run: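 Laser-scanning cytometry quantifies lipid droplet accumulation (500–530 nm total intensity; droplet/cell object ratio) in oleic acid-fed (400 uM added) Drosophila S3 cells treated with a concentration series. 20 uM Triacsin C defined 100% inhibition.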
# % is set by controls: 0 for no effect and ±100 for the full control effect; potency is the fitted concentration of half-maximal effect.
SMILES,Potency,"lipid storage change, negative = inhibition"
COc1ccc(N(CC(=O)NC(C)C)C(=O)CCC(=O)Nc2ccccn2)cc1,"inconclusive: 11.6 µM [activator, partial curve]",–
C[C@@H](O)C(C(=O)N1CCNCC1)n1cc([C@@H](N)CCCCN)nn1 (some centres not stated),"inconclusive: 29.1 µM [activator, single point]",–
COc1cc(NC(=O)CN2C(=O)C(C)N(c3ccc(C)cc3)C2=O)cc(OC)c1 (configuration not stated),–,inconclusive: 41.1%
O=C(/C=C/c1ccc(-c2ccccc2[N+](=O)[O-])o1)c1ccco1,"inconclusive: 0.0731 µM [activator, full curve]",–
CC(C)C(=O)Nc1nc(-c2ccc(S(=O)(=O)N3CCOCC3)cc2)cs1,active: 5.17 µM,–
Oc1ccc(-c2[nH]nc(-c3ccccc3)c2-c2nc3ccccc3[nH]2)cc1,–,inconclusive: 9.65%
Nc1cccc([N+](=O)[O-])c1,–,inconclusive: -2.73%
O=C(NS(=O)(=O)Oc1ccccc1F)OC[C@@H]1CCCN2CCCCC12 (some centres not stated),"inconclusive: 9.2 µM [activator, single point]",–
CCCCNC(=S)Nc1ccc(-c2nc3ccc(C)cc3s2)cc1,–,inconclusive: 42.3%
CC1=Nc2ccccc2N=C(NC(=O)CSC(=S)N2CCN(C)CC2)C1c1ccccc1 (configuration not stated),–,inconclusive: 2.02%
CCOc1cc(/C=C/C(=O)O)ccc1OCCOc1ccccc1,–,inconclusive: 78.9%
CCOc1ccc(-n2cc(C(=O)Nc3ccc(Cl)cn3)c3cc(OC)c(OC)cc3c2=O)cc1,–,inconclusive: -14.1%
CCC1Oc2ccccc2N(CC(=O)NCC2CCCO2)C1=O (configuration not stated),–,inconclusive: 8.07%
CN(C(=O)CSc1nc2ccccc2o1)C1CCCCC1,–,inconclusive
Cc1ccc(OCCNC(=O)CCNS(=O)(=O)c2ccc3ccccc3c2)cc1,–,inconclusive: -23.5%
Cc1ccccc1NC(=O)Nc1cnccn1,–,inconclusive: 24.1%
CCOC(=O)C1CCCN(CC(O)COCc2ccc3c(c2)OCO3)C1 (configuration not stated),–,inconclusive: 31.8%
CN(C)c1cccc(C(=O)NNC(=O)NC2CCCCC2)c1,–,inactive: 0.926%
CCOc1cc(CNn2cnnc2SCC(=O)NC(C)(C)C)ccc1OCC(=O)NC(C)(C)C,–,inconclusive: -34.5% [at 0.00295 µM]
O=C(Nc1ccnn1C1CCN(Cc2ccccc2)CC1)C1CCCC1,–,inconclusive: 32% [at 0.00295 µM]
O=C(O)CCn1c(=O)sc2ccccc21,–,inconclusive: 14.3%
O=C(CSc1nnc(-c2ccco2)n1-c1ccccc1)NCC1CCCO1 (configuration not stated),"inconclusive: 29.1 µM [falling, single point]",–

# 2 entries from above, tab-delimited.
SMILES	Potency	lipid storage change, negative = inhibition
COc1ccc(N(CC(=O)NC(C)C)C(=O)CCC(=O)Nc2ccccn2)cc1	inconclusive: 11.6 µM [activator, partial curve]	–
CCCCNC(=S)Nc1ccc(-c2nc3ccc(C)cc3s2)cc1	–	inconclusive: 42.3%
